Data from paper PMC6923396.
No constants are given. Whether binding was seen depends on the method and setting. Binding seen in cells or lysates may run through a third protein. Some binding calls cover weakened binding; strength is not graded here.

Chains of the proteins cited; added tags and fusions are not shown.
UniProt Q9UBN7: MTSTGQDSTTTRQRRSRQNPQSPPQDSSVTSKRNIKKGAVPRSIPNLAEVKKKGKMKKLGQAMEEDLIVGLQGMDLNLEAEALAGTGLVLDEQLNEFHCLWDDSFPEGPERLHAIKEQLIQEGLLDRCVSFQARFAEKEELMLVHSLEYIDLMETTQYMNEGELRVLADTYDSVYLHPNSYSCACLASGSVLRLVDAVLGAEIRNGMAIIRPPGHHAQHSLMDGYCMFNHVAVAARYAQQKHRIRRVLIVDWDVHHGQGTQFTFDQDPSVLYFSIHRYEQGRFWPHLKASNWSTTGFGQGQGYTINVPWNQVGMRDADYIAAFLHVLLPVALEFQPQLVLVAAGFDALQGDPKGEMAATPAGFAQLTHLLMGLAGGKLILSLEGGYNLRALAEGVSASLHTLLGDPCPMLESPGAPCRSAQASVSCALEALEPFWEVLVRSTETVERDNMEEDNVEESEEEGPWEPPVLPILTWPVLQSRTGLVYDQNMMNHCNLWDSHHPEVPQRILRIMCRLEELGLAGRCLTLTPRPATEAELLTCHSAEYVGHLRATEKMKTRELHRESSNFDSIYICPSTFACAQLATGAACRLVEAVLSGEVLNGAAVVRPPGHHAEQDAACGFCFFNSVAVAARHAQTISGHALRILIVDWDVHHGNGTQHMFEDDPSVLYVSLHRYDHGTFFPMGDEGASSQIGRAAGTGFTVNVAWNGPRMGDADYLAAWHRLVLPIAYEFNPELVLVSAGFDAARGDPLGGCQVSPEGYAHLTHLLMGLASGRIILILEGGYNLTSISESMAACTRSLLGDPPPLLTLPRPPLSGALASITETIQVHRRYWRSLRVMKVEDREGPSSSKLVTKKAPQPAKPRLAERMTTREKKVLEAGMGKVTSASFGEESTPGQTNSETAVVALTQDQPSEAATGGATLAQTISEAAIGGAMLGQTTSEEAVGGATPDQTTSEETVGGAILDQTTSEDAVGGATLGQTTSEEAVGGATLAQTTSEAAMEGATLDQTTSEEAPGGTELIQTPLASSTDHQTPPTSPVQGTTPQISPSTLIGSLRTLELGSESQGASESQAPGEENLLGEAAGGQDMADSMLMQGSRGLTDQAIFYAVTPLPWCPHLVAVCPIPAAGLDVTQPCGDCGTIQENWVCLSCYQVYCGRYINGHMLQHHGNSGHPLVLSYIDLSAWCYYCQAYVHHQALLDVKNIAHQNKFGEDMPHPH

Key:
[1] = target: endogenous p62 (p62/SQSTM1) of HEK293T cells (human (endogenous in HEK293T)) (UniProt Q13501); experiment: co-IP; endogenous TIP60 with p62 from HEK293T cells; NP-40 buffer
Flag-tagged HDAC6 = Flag-tagged HDAC6 (UniProt Q9UBN7); experiment: co-IP; HA- or Flag-tagged enzyme expressed in HEK293T cells and immunoprecipitated with anti-HA or anti-Flag; endogenous p62 detected with anti-p62; NP-40 buffer, 4 °C overnight
HA-TIP60 = HA-TIP60 (UniProt Q92993); experiment: as above

binding [1] | binding (Flag-tagged HDAC6) | binding (HA-TIP60) | Substance
binds |  |  | endogenous TIP60 of HEK293T cells (from UniProt Q92993 1-513) (enzyme)
 | binds | binds | endogenous p62 (p62/SQSTM1) of HEK293T cells (from UniProt Q13501 1-440)
